Results as given in US5854388A, “Angiotensin IV peptides and receptor” (Washington State University Research Foundation, priority 1994, dated 1998).
At least one peptide structure holds a part that was inferred or is arguable (an end, a ring closure or a residue). Residues, ends and D or L forms follow the SMILES beside them.

Target: T1, AT4 receptor (Bos taurus, UniProt F1N1Q8)
T1 sequence (F1N1Q8 1-1022): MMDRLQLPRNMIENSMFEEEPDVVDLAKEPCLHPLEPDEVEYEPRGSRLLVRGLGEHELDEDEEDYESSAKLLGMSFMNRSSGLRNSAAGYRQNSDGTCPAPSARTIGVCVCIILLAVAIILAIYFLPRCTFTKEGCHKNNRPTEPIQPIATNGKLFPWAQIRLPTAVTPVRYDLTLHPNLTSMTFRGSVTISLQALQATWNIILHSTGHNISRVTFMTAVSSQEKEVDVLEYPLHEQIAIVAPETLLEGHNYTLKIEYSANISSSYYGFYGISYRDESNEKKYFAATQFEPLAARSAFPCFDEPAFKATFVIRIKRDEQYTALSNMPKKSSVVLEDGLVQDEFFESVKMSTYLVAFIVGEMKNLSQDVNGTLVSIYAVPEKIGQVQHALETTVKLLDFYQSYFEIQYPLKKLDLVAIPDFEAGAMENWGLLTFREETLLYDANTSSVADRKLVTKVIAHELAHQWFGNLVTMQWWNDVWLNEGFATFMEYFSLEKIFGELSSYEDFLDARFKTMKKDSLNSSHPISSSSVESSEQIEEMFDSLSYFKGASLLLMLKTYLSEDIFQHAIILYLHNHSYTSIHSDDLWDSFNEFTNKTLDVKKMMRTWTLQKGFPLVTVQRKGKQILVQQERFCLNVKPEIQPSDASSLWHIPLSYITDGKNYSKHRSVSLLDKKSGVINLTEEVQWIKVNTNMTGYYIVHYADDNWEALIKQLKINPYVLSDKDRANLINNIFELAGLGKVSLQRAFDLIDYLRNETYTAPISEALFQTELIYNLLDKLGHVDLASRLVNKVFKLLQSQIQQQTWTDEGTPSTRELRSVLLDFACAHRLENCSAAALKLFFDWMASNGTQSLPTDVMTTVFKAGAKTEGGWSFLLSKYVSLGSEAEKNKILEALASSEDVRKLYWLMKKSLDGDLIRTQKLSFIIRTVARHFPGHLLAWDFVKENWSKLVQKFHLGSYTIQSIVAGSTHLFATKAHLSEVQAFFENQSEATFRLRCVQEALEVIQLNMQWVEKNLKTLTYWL
Assay: 125I-AIV binding and competition, solubilized bovine adrenal cortical receptor

CC[C@H](C)[C@H](NC(=O)[C@H](Cc1ccc(O)cc1)NC(=O)[C@@H](NC(=O)[C@@H](N)CCCNC(=N)N)C(C)C)C(=O)N[C@@H](Cc1c[nH]cn1)C(=O)N1CCC[C@H]1C(=O)N[C@@H](Cc1ccccc1)C(=O)N[C@@H](Cc1c[nH]cn1)C(=O)N[C@@H](CC(C)C)C(=O)O [DAAI, Arg1 Val2 Tyr3 Ile4 His5 Pro6 Phe7 His8 Leu9, reference compound] (H-RVYIHPFHL-OH)
times less effective than AIV in competing binding: approximately 100 times
